Measurements from publication PMC7694386.
No constants are given. Whether binding was seen depends on the method and setting. Binding seen in cells or lysates may run through a third protein. These calls come from enrichment with a bait or labelling near it, and not all partners need be listed.

Amino acid sequences for entries named in this document (tags omitted).
UniProt O95817: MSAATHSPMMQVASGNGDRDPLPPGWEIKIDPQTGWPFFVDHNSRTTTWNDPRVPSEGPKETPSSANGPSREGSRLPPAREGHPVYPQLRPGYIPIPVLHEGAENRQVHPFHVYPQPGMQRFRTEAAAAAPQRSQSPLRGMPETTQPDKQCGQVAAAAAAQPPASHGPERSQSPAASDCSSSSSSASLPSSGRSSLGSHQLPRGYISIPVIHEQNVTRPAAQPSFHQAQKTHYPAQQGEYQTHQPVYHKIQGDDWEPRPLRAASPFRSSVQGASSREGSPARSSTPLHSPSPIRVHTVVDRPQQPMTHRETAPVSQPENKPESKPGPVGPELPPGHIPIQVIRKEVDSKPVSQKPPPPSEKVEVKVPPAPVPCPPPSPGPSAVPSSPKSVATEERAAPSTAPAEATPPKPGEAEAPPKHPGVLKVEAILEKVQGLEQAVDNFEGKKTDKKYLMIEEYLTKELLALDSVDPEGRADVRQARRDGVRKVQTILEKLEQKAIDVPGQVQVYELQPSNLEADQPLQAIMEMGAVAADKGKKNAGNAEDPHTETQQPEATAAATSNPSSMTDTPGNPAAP

B1: MCM5 (protein, UniProt P33992 1-734)
chain: MSGFDDPGIFYSDSFGGDAQADEGQARKSQLQRRFKEFLRQYRVGTDRTGFTFKYRDELKRHYNLGEYWIEVEMEDLASFDEDLADYLYKQPAEHLQLLEEAAKEVADEVTRPRPSGEEVLQDIQVMLKSDASPSSIRSLKSDMMSHLVKIPGIIIAASAVRAKATRISIQCRSCRNTLTNIAMRPGLEGYALPRKCNTDQAGRPKCPLDPYFIMPDKCKCVDFQTLKLQELPDAVPHGEMPRHMQLYCDRYLCDKVVPGNRVTIMGIYSIKKFGLTTSRGRDRVGVGIRSSYIRVLGIQVDTDGSGRSFAGAVSPQEEEEFRRLAALPNVYEVISKSIAPSIFGGTDMKKAIACLLFGGSRKRLPDGLTRRGDINLLMLGDPGTAKSQLLKFVEKCSPIGVYTSGKGSSAAGLTASVMRDPSSRNFIMEGGAMVLADGGVVCIDEFDKMREDDRVAIHEAMEQQTISIAKAGITTTLNSRCSVLAAANSVFGRWDETKGEDNIDFMPTILSRFDMIFIVKDEHNEERDVMLAKHVITLHVSALTQTQAVEGEIDLAKLKKFIAYCRVKCGPRLSAEAAEKLKNRYIIMRSGARQHERDSDRRSSIPITVRQLEAIVRIAEALSKMKLQPFATEADVEEALRLFQVSTLDAALSGTLSGVEGFTSQEDQEMLSRIEKQLKRRFAIGSQVSEHSIIKDFTKQKYPEHAIHKVLQLMLRRGEIQHRMQRKVLYRLK
B2: small HSP HSPB8 (protein, UniProt Q9UJY1 1-196)
chain: MADGQMPFSCHYPSRLRRDPFRDSPLSSRLLDDGFGMDPFPDDLTASWPDWALPRLSSAWPGTLRSGMVPRGPTATARFGVPAEGRTPPPFPGEPWKVCVNVHSFKPEELMVKTKDGYVEVSGKHEEKQQEGGIVSKNFTKKIQLPAEVDPVTVFASLSPEGLLIIEAPQVPPYSTFGESSFNNELPQDSQEVTCT
B3: PFAS (protein, UniProt O15067 1-1338)
chain: MSPVLHFYVRPSGHEGAAPGHTRRKLQGKLPELQGVETELCYNVNWTAEALPSAEETKKLMWLFGCPLLLDDVARESWLLPGSNDLLLEVGPRLNFSTPTSTNIVSVCRATGLGPVDRVETTRRYRLSFAHPPSAEVEAIALATLHDRMTEQHFPHPIQSFSPESMPEPLNGPINILGEGRLALEKANQELGLALDSWDLDFYTKRFQELQRNPSTVEAFDLAQSNSEHSRHWFFKGQLHVDGQKLVHSLFESIMSTQESSNPNNVLKFCDNSSAIQGKEVRFLRPEDPTRPSRFQQQQGLRHVVFTAETHNFPTGVCPFSGATTGTGGRIRDVQCTGRGAHVVAGTAGYCFGNLHIPGYNLPWEDPSFQYPGNFARPLEVAIEASNGASDYGNKFGEPVLAGFARSLGLQLPDGQRREWIKPIMFSGGIGSMEADHISKEAPEPGMEVVKVGGPVYRIGVGGGAASSVQVQGDNTSDLDFGAVQRGDPEMEQKMNRVIRACVEAPKGNPICSLHDQGAGGNGNVLKELSDPAGAIIYTSRFQLGDPTLNALEIWGAEYQESNALLLRSPNRDFLTHVSARERCPACFVGTITGDRRIVLVDDRECPVRRNGQGDAPPTPLPTPVDLELEWVLGKMPRKEFFLQRKPPMLQPLALPPGLSVHQALERVLRLPAVASKRYLTNKVDRSVGGLVAQQQCVGPLQTPLADVAVVALSHEELIGAATALGEQPVKSLLDPKVAARLAVAEALTNLVFALVTDLRDVKCSGNWMWAAKLPGEGAALADACEAMVAVMAALGVAVDGGKDSLSMAARVGTETVRAPGSLVISAYAVCPDITATVTPDLKHPEGRGHLLYVALSPGQHRLGGTALAQCFSQLGEHPPDLDLPENLVRAFSITQGLLKDRLLCSGHDVSDGGLVTCLLEMAFAGNCGLQVDVPVPRVDVLSVLFAEEPGLVLEVQEPDLAQVLKRYRDAGLHCLELGHTGEAGPHAMVRVSVNGAVVLEEPVGELRALWEETSFQLDRLQAEPRCVAEEERGLRERMGPSYCLPPTFPKASVPREPGGPSPRVAILREEGSNGDREMADAFHLAGFEVWDVTMQDLCSGAIGLDTFRGVAFVGGFSYADVLGSAKGWAAAVTFHPRAGAELRRFRKRPDTFSLGVCNGCQLLALLGWVGGDPNEDAAEMGPDSQPARPGLLLRHNLSGRYESRWASVRVGPGPALMLRGMEGAVLPVWSAHGEGYVAFSSPELQAQIEARGLAPLHWADDDGNPTEQYPLNPNGSPGGVAGICSCDGRHLAVMPHPERAVRPWQWAWRPPPFDTLTTSPWLQLFINARNWTLEGSC
B4: NUFIP2 (protein, UniProt Q7Z417 1-695)
chain: MEEKPGQPQPQHHHSHHHPHHHPQQQQQQPHHHHHYYFYNHSHNHHHHHHHQQPHQYLQHGAEGSPKAQPKPLKHEQKHTLQQHQETPKKKTGYGELNGNAGEREISLKNLSSDEATNPISRVLNGNQQVVDTSLKQTVKANTFGKAGIKTKNFIQKNSMDKKNGKSYENKSGENQSVDKSDTIPIPNGVVTNNSGYITNGYMGKGADNDGSGSESGYTTPKKRKARRNSAKGCENLNIVQDKIMQQETSVPTLKQGLETFKPDYSEQKGNRVDGSKPIWKYETGPGGTSRGKPAVGDMLRKSSDSKPGVSSKKFDDRPKGKHASAVASKEDSWTLFKPPPVFPVDNSSAKIVPKISYASKVKENLNKTIQNSSVSPTSSSSSSSSTGETQTQSSSRLSQVPMSALKSVTSANFSNGPVLAGTDGNVYPPGGQPLLTTAANTLTPISSGTDSVLQDMSLTSAAVEQIKTSLFIYPSNMQTMLLSTAQVDLPSQTDQQNLGDIFQNQWGLSFINEPSAGPETVTGKSSEHKVMEVTFQGEYPATLVSQGAEIIPSGTEHPVFPKAYELEKRTSPQVLGSILKSGTTSESGALSLEPSHIGDLQKADTSSQGALVFLSKDYEIESQNPLASPTNTLLGSAKEQRYQRGLERNDSWGSFDLRAAIVYHTKEMESIWNLQKQDPKRIITYNEAMDSPDQ
B5: APRT (protein, UniProt P07741 1-180)
chain: MADSELQLVEQRIRSFPDFPTPGVVFRDISPVLKDPASFRAAIGLLARHLKATHGGRIDYIAGLDSRGFLFGPSLAQELGLGCVLIRKRGKLPGPTLWASYSLEYGKAELEIQKDALEPGQRVVVVDDLLATGGTMNAACELLGRLQAEVLECVSLVELTSLKGREKLAPVPFFSLLQYE
B6: BTB/POZ domain-containing protein KCTD1 (protein, UniProt Q719H9 1-257)
chain: MSRPLITRSPASPLNNQGIPTPAQLTKSNAPVHIDVGGHMYTSSLATLTKYPESRIGRLFDGTEPIVLDSLKQHYFIDRDGQMFRYILNFLRTSKLLIPDDFKDYTLLYEEAKYFQLQPMLLEMERWKQDRETGRFSRPCECLVVRVAPDLGERITLSGDKSLIEEVFPEIGDVMCNSVNAGWNHDSTHVIRFPLNGYCHLNSVQVLERLQQRGFEIVGSCGGGVDSSQFSEYVLRRELRRTPRVPSVIRIKQEPLD

The binders below were run against BAG3 (BCL-2-associated athanogene 3) (human (endogenous in HEK293T)) (UniProt O95817) (assay: affinity purification with mass spectrometry; endogenous BAG3 immunoprecipitated with anti-BAG3 antibody and Protein A/G magnetic beads from HEK293T lysate; cells treated with DMSO (basal) or 10 µM MG132 for 6 h; IgG IP (MG132_IgG) as control; label-free quantification, three biological replicates).

| binding | Binder |
| --- | --- |
| binds | B1 |
| binds | B2 |
| binds | B3 |
| binds | B4 |
| binds | B5 |
| binds | B6 |
